Literature values as cited in patent US11338055B2, “Wound dressing” (Animal Ethics Pty Ltd, priority 2017, dated 2022).
Some entries share one result that the patent states for a list of compounds. At least one compound was matched to its structure with a doubt left. Some ranges recur; such a range may be that of the whole group of compounds.

Conditions: usually between about; for onset of action: rapid onset anaesthetic agents

SMILES | duration of action (anaesthesia) (long duration anaesthetic agents) [h] | onset of action [min]
CCCCNc1ccc(C(=O)OCCN(C)C)cc1 [amethocaine/tetracaine] | 4 to 12 | 5 to 10
COC(=O)[C@H]1[C@@H](OC(=O)c2ccccc2)C[C@@H]2CC[C@H]1N2C [cocaine] |  | 5 to 10
